# PubChem BioAssay AID743454 | Peter MacCallum Cancer Centre | 2014
# Purpose: 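Knock-downs lowering viability or raising caspase 3/7 activity in vorinostat-treated resistant cells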 (primary screen)
# Cell system: human HCT116-VR colon cancer cells, selected for vorinostat resistance
# Knock-down reagent: siRNA pool against human genes, 40 nM siRNA pool
# Time to read-out: vorinostat for 24 h, read-out about 72 h after transfection
# Conditions: vorinostat at 2.5 µM final
# Measured: 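Cell viability by CellTiter-Fluor and caspase 3/7 activity by luminescence, each scaled to mock wells per plate, duplicates averaged, then robust z-scored over all plates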
# Scale: viability robust z-score: higher = more viable cells than screen typical; caspase robust z-score: higher = more caspase 3/7 activity than screen typical
# Rule for the call: 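Hits are knock-downs in viability class RV1/RV2 or caspase class CA1/CA2, excluding ones that killed cells in the no-drug cell-count arm; hits then retested with single siRNAs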
# Shown is an unselected part of about 18,000 reagents tested. 450 of all reagents (2.5%) count as active. 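Single biological run; no consistent viability z cut-off exists, so the class columns, not z-scores, define the calls.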
gene,viability hit class,caspase hit class,viability robust z-score,caspase robust z-score,outcome
C17orf75,no change,no change,-0.33,0.48,inactive
MDN1,no change,no change,-1.23,-0.92,inactive
KMT5A,no change,no change,-1.33,2.47,inactive
SLC9A3,no change,no change,0.52,0.62,inactive
KATNBL1,no change,no change,-0.04,-0.08,inactive
SHB,no change,no change,-0.11,-0.49,inactive
PDLIM7,no change,no change,0.74,3.63,inactive
MT2A,no change,no change,-0.24,-0.35,inactive
CXCL11,no change,no change,-0.01,-0.24,inactive
ZNF217,no change,no change,0.15,1.96,inactive
KCND2,no change,no change,-0.86,-0.59,inactive
OR6C1,no change,no change,-1.12,-0.79,inactive
DNAJB8,no change,no change,-2.26,1.18,inactive
NTN4,no change,no change,0.82,-0.12,inactive
AMDHD1,no change,no change,-0.46,-0.69,inactive
ALLC,no change,no change,0.62,-0.14,inactive
ASAP3,no change,no change,-1.85,0.6,inactive
HPGD,no change,no change,-1.8,3,inactive
SIRT1,no change,no change,0.04,-1.18,inactive
ZNF226,no change,no change,0.71,3.35,inactive
TNNI1,no change,no change,0.21,-0.84,inactive
CDC7,no change,no change,0.78,1.08,inactive
WDPCP,no change,no change,1.02,2.76,inactive
ROMO1,no change,no change,-1.47,-0.89,inactive
RIMBP2,no change,no change,2.11,-0.13,inactive
ANK1,no change,no change,0.52,2.48,inactive
PEX10,no change,no change,0.55,-0.63,inactive
CCDC122,no change,no change,-0.16,2.07,inactive
SHISA3,no change,no change,-0.68,-0.38,inactive
STRA8,no change,no change,-0.8,0.79,inactive
PDE4D,no change,no change,1.84,1.25,inactive
VCAN,no change,no change,1.14,-0.99,inactive
IRX2,no change,no change,0.14,-0.04,inactive
TRIM10,no change,no change,0.74,0.43,inactive
COLEC12,no change,no change,0.05,-0.52,inactive
ITGB7,no change,no change,-0.1,-0.6,inactive
PPP1R16A,no change,no change,1.62,0.06,inactive
PSMB6,no change,no change,-5.9,2.83,inactive
C2orf69,no change,no change,-0.96,-1.04,inactive
